Source: PubChem BioAssay AID493014 (National Center for Advancing Translational Sciences (NCATS), 2011)
The other results are listed elsewhere or left out. The main result of the screen is listed elsewhere. These columns were measured beside it and carry no call. The list favours compounds with an active or inconclusive main result. Words in brackets tell the shape of the fitted curve; partial curves, single points and poor fits give uncertain potencies.

Assay: qHTS Assay to Find Inhibitors of Chronic Active B-Cell Receptor Signaling
Settings: ABC-DLBCL IkBa-CBG/CBR reporter, luminescence ratio (green luciferase fused to IkBa over red control in TMD8 lymphoma cells), 4 h
Procedure, shortened: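 Compounds up to 46 uM were incubated four hours with TMD8 cells whose green CBG68 luciferase is fused to IkappaBalpha; red CBR luminescence normalised the signal, and concentration-effect curves were fitted to fusion, red and ratio data.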

[1] = measured here: CBR red luminescence, cell number
[2] = measured here: IkBa-CBG green luminescence

| SMILES | AC50 [1] | AC50 [2] |
| --- | --- | --- |
| CSCCNC(=O)c1ccc2nc(C3CCCCC3)oc2c1 | 35.5 µM [rising, single point] | – |
| c1ccc2cc(CCCc3cc4ccccc4cn3)ncc2c1 | 0.517 µM [rising, full curve, poor fit] | – |
| COc1ccccc1N1CCN(Cc2ccsc2)CC1 | 7.94 µM [rising, partial curve, poor fit] | – |
| CC1CC(=O)Nc2cc([N+](=O)[O-])ccc2N1 (stereo unspecified) | 39.8 µM [rising, partial curve, poor fit] | – |
| C=CCN1C(=O)C(=O)N(CC(=O)c2ccc3c(c2)CCCC3)C1=O | 14.6 µM [rising, partial curve, poor fit] | – |
| O=C(c1cnn2ccccc12)N1CCc2ccccc21 | 14.6 µM [falling, partial curve, poor fit] | – |
| N#C/C(=C\c1cn(CCOc2ccccc2)c2ccccc12)C(=O)NCc1cccs1 | 7.31 µM [rising, partial curve, poor fit] | – |
| O=C(c1ccc2ncsc2c1)N1CCN(c2ccccc2Cl)CC1 | 10 µM [falling, partial curve, poor fit] | – |
| Cc1nc(NC(=O)c2ccccc2)sc1Cc1ccc2c(c1)OCO2 | 8.2 µM [falling, partial curve] | – |
| COc1ccc(Cl)cc1NC(=S)NC(=O)c1ccco1 | 3.26 µM [rising, full curve, poor fit] | – |
| COc1ccc(OC)c(CNc2c(C=O)c(=O)[nH]c3ccccc23)c1 | 35.5 µM [falling, single point] | – |
| O=C1N=C(N2CCc3ccccc3C2)S/C1=C\c1cccc(O)c1 | 20.6 µM [falling, single point] | – |
| Cc1ccc2nsnc2c1NC(=O)COc1ccccc1F | 2.24 µM [rising, full curve, poor fit] | – |
| O=C(CCCn1c(=O)c2ccccc2n(Cc2cccc(F)c2)c1=O)NC1CCN(Cc2ccccc2)CC1 | 11.2 µM [falling, single point] | – |
| CCSc1ccccc1C(=O)N1CCCC1 | 18.4 µM [rising, partial curve, poor fit] | – |
| O=C1Nc2ccccc2C1=Nc1ccc(S(=O)(=O)Nc2nccs2)cc1 | 3.98 µM [rising, partial curve, poor fit] | – |
| Cc1cccc(OCCCC(=O)Nc2nc3ccccc3[nH]2)c1 | 11.2 µM [rising, partial curve] | – |
| CCOC(=O)O[C@]1(C(=O)COC(=O)CC)CC[C@H]2[C@@H]3CCC4=CC(=O)C=C[C@]4(C)[C@H]3[C@@H](O)C[C@@]21C | 0.00517 µM [rising, full curve, poor fit] | – |
| O=C(Nc1nccs1)c1ccc2ccccc2n1 | 10 µM [falling, partial curve, poor fit] | – |
| COCCNC(=O)Cn1cnc2sc(C)c(S(=O)(=O)N3CCC(C)CC3)c2c1=O | 2.82 µM [falling, single point] | – |
| COCCn1c(-c2ccccc2Cl)nc2c(c(=O)c3ccccc3n2C)c1=O | 1.84 µM [rising, partial curve, poor fit] | – |

| SMILES | AC50 [1] | AC50 [2] |
| --- | --- | --- |
| Cc1ccc(-c2cc3ccccc3nc2N2CCOCC2)cc1 | 2.24 µM [rising, partial curve, poor fit] | – |
| CCCCOc1ccc(-c2nn(-c3ccccc3)cc2C2NC(=O)NC(C)=C2C(=O)OC)cc1 (stereo unspecified) | 3.16 µM [rising, single point] | – |
| Cc1cc(=O)oc2cc(OCC(=O)Nc3nccs3)ccc12 | 8.91 µM [falling, partial curve] | – |
| Cc1nc(NC2=NCN(Cc3cccnc3)CN2)nc2ccccc12 | 11.2 µM [falling, partial curve, poor fit] | – |
| O=C(CSc1nnnn1C1CCCCC1)N1c2ccccc2Sc2ccccc21 | 18.4 µM [falling, single point] | – |
| Cc1nc(SCC(=O)NCc2ccccc2)c2oc3ccccc3c2n1 | 2.91 µM [rising, single point] | – |
| N#Cc1ccc(COC(=O)c2cccnc2Cl)cc1 | 10 µM [rising, partial curve, poor fit] | 35.5 µM [falling, partial curve, poor fit] |
| S=c1[nH]nc(-c2cccc(Cl)c2)n1/N=C/c1ccc(-c2ccccc2Br)o1 | 17.8 µM [rising, single point] | – |
| O=C(Nc1ccc(F)cc1)Nc1ccc(N2CCCC2)c(S(=O)(=O)Nc2ccccc2Cl)c1 | 3.26 µM [falling, full curve] | – |
| Cc1ccc2c(c1)N(CC(=O)NCc1ccco1)C(=O)C(C(C)C)O2 (stereo unspecified) | 1.58 µM [rising, single point] | – |
| COc1ccc(Cl)cc1NC(=O)c1c(NCc2ccc(C)o2)sc2c1CCCCC2 | 35.5 µM [falling, single point] | – |
| Cc1cccc(N(CC(=O)NC2CCCCC2)C(=O)CCCC(=O)Nc2ccccn2)c1 | 23.1 µM [falling, partial curve] | – |
| Cc1ccc(S(=O)(=O)c2cnc(-c3ccccc3)nc2N2CCCCC2)cc1 | 1.12 µM [rising, full curve, poor fit] | – |
| COc1cc([N+](=O)[O-])cc(/C=N/NC(=O)c2cccnc2)c1O | 5.62 µM [falling, full curve] | 4.47 µM [rising, partial curve, poor fit] |
| COc1ccccc1C(=O)n1nc(-c2cccnc2)nc1N | 1.64 µM [falling, full curve] | – |
| Cc1cccc(NC(=S)NCc2ccccn2)c1 | – | 25.1 µM [falling, single point] |
| O=C(Nc1ccccc1C(=O)NC(Cc1ccc(O)cc1)C(=O)O)c1ccccc1 (stereo unspecified) | 20 µM [falling, single point] | – |
| COc1ccc(C)cc1NC(=O)CN1CCN(c2ccccc2F)CC1 | 29.1 µM [rising, single point] | – |
| CC(C)C[C@H](CO)Nc1nc(Nc2cccc(Cl)c2)c2ncn(C(C)C)c2n1 | 10 µM [falling, partial curve] | 17.8 µM [rising, single point] |
| COc1cc2c(C(=O)Nc3ccccc3F)cn(C)c(=O)c2cc1OC | 0.0891 µM [rising, full curve, poor fit] | – |
| COc1ccc(CCNS(=O)(=O)c2ccc3c(c2)NC(=O)C(C)S3)cc1OC (stereo unspecified) | 11.2 µM [falling, partial curve, poor fit] | – |

Random excerpt: two compounds from above

| SMILES | AC50 [1] | AC50 [2] |
| --- | --- | --- |
| Cc1cccc(OCCCC(=O)Nc2nc3ccccc3[nH]2)c1 | 11.2 µM [rising, partial curve] | – |
| Cc1nc(NC2=NCN(Cc3cccnc3)CN2)nc2ccccc12 | 11.2 µM [falling, partial curve, poor fit] | – |

(cont.)

| SMILES | AC50 [1] | AC50 [2] |
| --- | --- | --- |
| COc1ccc(C(=O)Nc2ccc(S(=O)(=O)NC(C)(C)C)cc2)cc1[N+](=O)[O-] | 0.891 µM [rising, partial curve] | – |
| COc1ccc(N(C(=O)C2CCCCC2)S(=O)(=O)c2cccc3cccnc23)cc1 | 8.91 µM [falling, partial curve] | – |
| Nc1nc2ccc(NC(=O)c3ccco3)cc2s1 | 15.8 µM [falling, partial curve, poor fit] | – |
| O=C(CN1C(=O)NC2(CCCCCC2)C1=O)Nc1cccc(F)c1 | 18.4 µM [falling, single point] | – |
| CCOc1ccc(/C=N/NC(=O)c2ccccc2Cl)cc1CN1CC2CC(C1)c1cccc(=O)n1C2 (stereo unspecified) | 23.1 µM [falling, partial curve, poor fit] | – |
| C=CCN(C(=O)CCC(=O)Nc1cc(C)on1)C(C(=O)NC(C)(C)C)c1cccc(OC)c1OC (stereo unspecified) | 3.55 µM [rising, partial curve, poor fit] | – |
| O=C(Nc1ccc(N2CCN(C(=O)c3ccccc3)CC2)c(Cl)c1)c1cccnc1 | 14.6 µM [falling, single point] | – |
| c1ccc(CNc2c3ccccc3nc3ccccc23)cc1 | 14.1 µM [falling, single point] | – |
| O=C(O)C1C2C=CC(O2)C1C(=O)Nc1ccc2c(c1)OCCO2 (stereo unspecified) | 35.5 µM [falling, single point] | – |
| CCOC(=O)c1ccc(N=NN(C)C)cc1 | 1.12 µM [rising, partial curve, poor fit] | – |
| C[C@@H](NC(=O)[C@@H]1Cc2ccccc2CN1C(=O)OC(C)(C)C)C(=O)NC1CCCCC1 | 2.82 µM [falling, partial curve] | – |
| O=C(Nc1ccccc1)c1nnsc1S(=O)(=O)c1ccc(Cl)cc1 | 7.94 µM [falling, partial curve] | 12.6 µM [rising, partial curve, poor fit] |
| CCOc1ccc(S(=O)(=O)Nc2cc(SCC(=O)O)c(O)c3ccccc23)cc1 | 35.5 µM [falling, single point] | – |
| COc1ccc(OCc2cccc(C(=O)NN)c2)cc1 | 7.08 µM [falling, full curve] | – |
| Cc1ccsc1C(=O)OCc1nc2ccccc2c(=O)[nH]1 | 16.4 µM [falling, single point] | – |
| COc1ccc(-n2nc(C(=O)NCC(=O)N3CCOCC3)c3ccccc3c2=O)cc1Cl | 12.6 µM [rising, partial curve, poor fit] | – |
| CCOC(=O)c1cc(-c2csc(-c3cccc(Cl)c3)n2)on1 | 3.16 µM [falling, partial curve, poor fit] | – |
| C=CCN=C1N[C@@H](c2cccc(C(F)(F)F)c2)C(C(=O)OC)=C(C)N1CC | 35.5 µM [falling, single point] | – |
| O=C(O)CC/C(=N/NC(=O)c1cccs1)c1ccccc1 | 14.6 µM [falling, partial curve, poor fit] | – |
| CCN(CC)CCN1C(=O)C(O)=C(C(=O)c2cccs2)C1c1ccccn1 (stereo unspecified) | 29.1 µM [falling, single point] | – |
